We go through 24 compounds from the supplement of paper PMC12542422.

Experiment [1] deals with HeLa K (ENP1 immunofluorescence, +LMB). The experiment in a line: fraction of cells with nucleolar or nucleolar/nucleoplasmic ENP1 signal (MainHitrate); higher = more cells with nucleolar/nuclear readout signal (for ENP1 -LMB: less RNAPI inhibition; for +LMB ENP1 and RP reporters: stronger nuclear/nucleolar retention, i.e. ribosome biogenesis defect). The following applies: concentration: 1 µM; treatment time: 6 h; ENP1 +LMB; leptomycin B: 20 nM, last 1.5 h.

The subject of experiment [2] is HeLa K (ENP1 immunofluorescence, no LMB). The experiment is described as above. The following applies: concentration: 1 µM; treatment time: 6 h; ENP1 -LMB; leptomycin B: none.
In the next experiment the test system is HeLa RPS2-YFP reporter. As to the kind of experiment: fraction of reporter-positive cells with nuclear (nucleolar or nucleolar/nucleoplasmic) RPS2-YFP (MainHitrate); higher = more cells with nucleolar/nuclear readout signal (for ENP1 -LMB: less RNAPI inhibition; for +LMB ENP1 and RP reporters: stronger nuclear/nucleolar retention, i.e. ribosome biogenesis defect). The following applies: concentration: 1 µM; treatment time: 6 h.

Another experiment has as its system HeLa RPL29-GFP reporter. As to the kind of experiment: fraction of reporter-positive cells with nuclear (nucleolar or nucleolar/nucleoplasmic) RPL29-GFP (MainHitrate); higher = more cells with nucleolar/nuclear readout signal (for ENP1 -LMB: less RNAPI inhibition; for +LMB ENP1 and RP reporters: stronger nuclear/nucleolar retention, i.e. ribosome biogenesis defect). The following applies: concentration: 1 µM; treatment time: 6 h.

Structures can show the parent of a compound that is named as a salt. ± gives the standard deviation of the averaged measurements. This is one part of the list. These are raw signals, not scaled to a control.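 HeLa cells imaged for ribosome-assembly readouts (ENP1 staining with or without export block, or inducible tagged ribosomal protein reporters); machine learning classified each cell's signal location against solvent (DMSO) controls. Hits exceeded the DMSO false-positive mean by five standard deviations, then were visually confirmed; three biological replicates.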

With `CC1=C(/C=C/C(C)=C/C=C/C(C)=C/C=C/C=C(C)/C=C/C=C(C)/C=C/C2=C(C)CCCC2(C)C)C(C)(C)CCC1` [Beta Carotene], the fraction in experiment [1] stood at 0.119 ± 0.12; in experiment [2], 0.9989 ± 0.0019. The “fraction of reporter-positive cells with nuclear” value (“fraction … with nuclear” for short) is 0.126 ± 0.073 in the experiment on HeLa RPS2-YFP reporter and 0.202 ± 0.04 with HeLa RPL29-GFP reporter.

Consider `Clc1ccc2c(c1)CCc1cccnc1C2=C1CCNCC1` [Desloratadine], for which the fraction in experiment [1] stood at 0.107 ± 0.16; in experiment [2], 0.987 ± 0.023. Also, the “fraction … with nuclear” value stood at 0.138 ± 0.097 in the experiment with HeLa RPS2-YFP reporter and 0.205 ± 0.052 in the experiment on HeLa RPL29-GFP reporter.

For `O=C(O)CSCC(=O)NC1CCSC1=O` (stereo unspecified) [Erdosteine], the results for the fraction in experiment [1] and in experiment [2] were 0.09 ± 0.13 and 0.994 ± 0.011, respectively. The “fraction … with nuclear” value in the experiment on HeLa RPS2-YFP reporter came to 0.0835 ± 0.057; in the experiment with HeLa RPL29-GFP reporter it was 0.216 ± 0.08.

For the compound `NC(=O)c1cn(Cc2c(F)cccc2F)nn1` [Rufinamide (Banzel)], the fraction in experiment [1] was found to be 0.109 ± 0.096; in experiment [2] it was 0.9985 ± 0.0026. The “fraction … with nuclear” value in the experiment with HeLa RPS2-YFP reporter is 0.125 ± 0.09; with HeLa RPL29-GFP reporter it was 0.219 ± 0.091.

As to `CC(S)C(=O)NCC(=O)O` (stereo unspecified) [Tiopronin (Thiola)], the fraction in experiment [1] turned out to be 0.0941 ± 0.14; in experiment [2] it was 0.992 ± 0.013. The “fraction … with nuclear” value is 0.113 ± 0.076 in the experiment with HeLa RPS2-YFP reporter and 0.221 ± 0.084 with HeLa RPL29-GFP reporter.

With `O=c1cc[nH]c(=S)[nH]1` [2-Thiouracil], the fraction was 0.0801 ± 0.11 in experiment [1] and 0.992 ± 0.013 in experiment [2]. Further, the “fraction … with nuclear” value was determined as 0.124 ± 0.099 in the experiment with HeLa RPS2-YFP reporter and 0.209 ± 0.033 in the experiment with HeLa RPL29-GFP reporter.

`CC(CCc1ccc(O)cc1)NCC(O)c1ccc(O)cc1` (stereo unspecified) [Ractopamine HCl]: the fraction was 0.0954 ± 0.11 in experiment [1] and 0.9988 ± 0.002 in experiment [2]. The entries for the “fraction … with nuclear” value with HeLa RPS2-YFP reporter and in the experiment with HeLa RPL29-GFP reporter were 0.192 ± 0.21 and 0.311 ± 0.26, respectively.

Take `CCCCC1=NC2(CCCC2)C(=O)N1Cc1ccc(-c2ccccc2-c2nnn[nH]2)cc1` [Irbesartan (Avapro)]: the fraction in experiment [1] came out at 0.0826 ± 0.061; in experiment [2], 0.9987 ± 0.0023. In addition, the results for the “fraction … with nuclear” value with HeLa RPS2-YFP reporter and in the experiment with HeLa RPL29-GFP reporter were 0.115 ± 0.095 and 0.224 ± 0.056, respectively.

Consider `C[C@H](CS)C(=O)N1CCC[C@H]1C(=O)O` [Captopril (Capoten)], for which the results for the fraction in experiment [1] and in experiment [2] were 0.103 ± 0.15 and 0.994 ± 0.011, respectively. Moreover, the “fraction … with nuclear” value in the experiment on HeLa RPS2-YFP reporter worked out at 0.128 ± 0.11; in the experiment on HeLa RPL29-GFP reporter it was 0.222 ± 0.065.

Turning to `O=C1CCC(N2C(=O)c3ccccc3C2=O)C(=O)N1` (stereo unspecified) [Thalidomide], the fraction is 0.0654 ± 0.037 in experiment [1] and 0.9971 ± 0.005 in experiment [2]. Besides, the “fraction … with nuclear” value with HeLa RPS2-YFP reporter amounted to 0.106 ± 0.072; in the experiment on HeLa RPL29-GFP reporter it was 0.216 ± 0.056.

Turning to `CC(=O)OCC(=O)[C@@]12OC(C)(C)O[C@@H]1C[C@H]1[C@@H]3C[C@H](F)C4=CC(=O)C=C[C@]4(C)[C@@]3(F)[C@@H](O)C[C@@]12C` [Fluocinonide (Vanos)], the fraction in experiment [1] came to 0.0654 ± 0.084; in experiment [2], 0.979 ± 0.036. Also, the “fraction … with nuclear” value with HeLa RPS2-YFP reporter amounted to 0.171 ± 0.077; with HeLa RPL29-GFP reporter it was 0.242 ± 0.023.

As to `CC(C(=O)O)c1ccc2c(c1)CC(=O)c1ccccc1S2` (stereo unspecified) [Zaltoprofen], the fraction in experiment [1] came out at 0.0966 ± 0.12; in experiment [2], 0.986 ± 0.024. The “fraction … with nuclear” value is 0.137 ± 0.12 in the experiment on HeLa RPS2-YFP reporter and 0.225 ± 0.064 in the experiment with HeLa RPL29-GFP reporter.

`CC(=O)O[C@H]1C(=O)[C@@]2(C)[C@H]([C@H](OC(=O)c3ccccc3)[C@]3(O)C[C@H](OC(=O)[C@H](O)[C@@H](NC(=O)c4ccccc4)c4ccccc4)C(C)=C1C3(C)C)[C@]1(OC(C)=O)CO[C@@H]1C[C@@H]2O` [Paclitaxel (Taxol)]: the fraction in experiment [1] was 0.0713 ± 0.051; in experiment [2], 0.993 ± 0.011. In addition, the entries for the “fraction … with nuclear” value in the experiment on HeLa RPS2-YFP reporter and with HeLa RPL29-GFP reporter were 0.17 ± 0.11 and 0.298 ± 0.022, respectively.

`CNS(=O)(=O)CCc1ccc2[nH]cc(C3CCN(C)CC3)c2c1` [Naratriptan HCl]: the fraction in experiment [1] came out at 0.0523 ± 0.025; in experiment [2], 0.9987 ± 0.0022. Moreover, the figures for the “fraction … with nuclear” value in the experiment with HeLa RPS2-YFP reporter and in the experiment on HeLa RPL29-GFP reporter were 0.102 ± 0.063 and 0.176 ± 0.034, respectively.

Regarding `OCCOCCN1CCN(C2=Nc3ccccc3Sc3ccccc32)CC1` [Quetiapine fumarate (Seroquel)], the fraction in experiment [1] was found to be 0.118 ± 0.14; in experiment [2], 0.9994 ± 0.001. Also, the “fraction … with nuclear” value with HeLa RPS2-YFP reporter worked out at 0.0631 ± 0.01; with HeLa RPL29-GFP reporter, 0.203 ± 0.07.

In the case of `CC/C(=C(/CC)c1ccc(O)cc1)c1ccc(O)cc1` [Diethylstilbestrol (Stilbestrol)], the values for the fraction in experiment [1] and in experiment [2] were 0.109 ± 0.17 and 0.993 ± 0.011, respectively. The “fraction … with nuclear” value came to 0.0984 ± 0.063 in the experiment on HeLa RPS2-YFP reporter and 0.206 ± 0.061 in the experiment with HeLa RPL29-GFP reporter.

With `OCCN1C[C@H](O)[C@@H](O)[C@H](O)[C@H]1CO` [Miglitol (Glyset)], the fraction in experiment [1] turned out to be 0.0354 ± 0.036; in experiment [2], 0.994 ± 0.01. For the same compound, the “fraction … with nuclear” value in the experiment on HeLa RPS2-YFP reporter was 0.11 ± 0.095; in the experiment with HeLa RPL29-GFP reporter, 0.212 ± 0.073.

`CCCCC(=O)O[C@]1(C(=O)CO)[C@@H](C)C[C@H]2[C@@H]3CCC4=CC(=O)C=C[C@]4(C)[C@@]3(F)[C@@H](O)C[C@@]21C` [Betamethasone valerate (Betnovate)]: the figures for the fraction in experiment [1] and in experiment [2] were 0.076 ± 0.056 and 0.9984 ± 0.0027, respectively. The “fraction … with nuclear” value in the experiment on HeLa RPS2-YFP reporter came out at 0.14 ± 0.12; in the experiment with HeLa RPL29-GFP reporter it was 0.253 ± 0.044.

Turning to `Cc1onc(-c2ccccc2)c1-c1ccc(S(N)(=O)=O)cc1` [Bextra (valdecoxib)], the fraction in experiment [1] was determined as 0.0584 ± 0.07; in experiment [2], 0.993 ± 0.011. Also, the entries for the “fraction … with nuclear” value in the experiment with HeLa RPS2-YFP reporter and with HeLa RPL29-GFP reporter were 0.109 ± 0.073 and 0.205 ± 0.049, respectively.

On to `CC(O)(P(=O)(O)O)P(=O)(O)O` [Etidronate (Didronel)], for which the fraction in experiment [1] stood at 0.0982 ± 0.14; in experiment [2], 0.991 ± 0.016. The “fraction … with nuclear” value stood at 0.0908 ± 0.048 with HeLa RPS2-YFP reporter and 0.234 ± 0.076 in the experiment on HeLa RPL29-GFP reporter.

`CC(=O)Oc1cc(C(F)(F)F)ccc1C(=O)O` [Triflusal]: the fraction in experiment [1] came out at 0.0673 ± 0.094; in experiment [2], 0.979 ± 0.036. Also, the “fraction … with nuclear” value with HeLa RPS2-YFP reporter came to 0.098 ± 0.083; in the experiment with HeLa RPL29-GFP reporter, 0.212 ± 0.06.

`CN(C)c1nc(N(C)C)nc(N(C)C)n1` [Altretamine (Hexalen)]: the fraction turned out to be 0.13 ± 0.17 in experiment [1] and 0.9984 ± 0.0027 in experiment [2]. Besides, the “fraction … with nuclear” value with HeLa RPS2-YFP reporter worked out at 0.123 ± 0.078; in the experiment on HeLa RPL29-GFP reporter, 0.203 ± 0.09.

For `COc1ccc(CN2CCN(C(c3ccc(F)cc3)c3ccc(F)cc3)CC2)c(OC)c1OC` [Lomerizine HCl], the figures for the fraction in experiment [1] and in experiment [2] were 0.0459 ± 0.05 and 0.986 ± 0.024, respectively. Besides, the “fraction … with nuclear” value is 0.117 ± 0.096 in the experiment with HeLa RPS2-YFP reporter and 0.221 ± 0.061 in the experiment with HeLa RPL29-GFP reporter.

Take `C[C@@H]1[C@H](O)[C@@H](C)/C=C/C=C/C=C/C=C/C=C/C=C/C=C/[C@H](O[C@@H]2O[C@H](C)[C@@H](O)[C@H](N)[C@@H]2O)C[C@@H]2O[C@](O)(C[C@@H](O)C[C@@H](O)[C@H](O)CC[C@@H](O)C[C@@H](O)CC(=O)O[C@H]1C)C[C@H](O)[C@H]2C(=O)O` [Amphotericin B (Abelcet)]: the fraction in experiment [1] was 0.117 ± 0.14; in experiment [2] it was 0.998 ± 0.0035. In addition, the “fraction … with nuclear” value turned out to be 0.12 ± 0.083 with HeLa RPS2-YFP reporter and 0.208 ± 0.056 with HeLa RPL29-GFP reporter.
